# Library screen at single concentrations

The filed quantity is “Percent Effect” (%). The record does not define 0% and 100%; most values in the screen are far below 50% and negative numbers occur (in some assays of this library far below -100). Compounds were drawn at random from those tested, without regard to their results.

Mtb glucose medium: 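Whole-cell growth test on Mycobacterium tuberculosis, read after 3 days in glucose-containing 7H9 medium; the read-out is not stated. Tested at 500 µM. Direction is inferred from retests: higher values go with more growth inhibition. About 18,000 compounds were tested under these conditions; 7.9% (about 1,400) showed 50% or more at least once.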
Mtb cholesterol medium: 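Phenotypic screen: M. tuberculosis growth, cholesterol and DPPC medium, 4 days; the read-out is not stated. Tested at 500 µM. Higher reads as more growth inhibition (inferred: compounds with an IC50 in retests scored well above the rest). Size under these conditions: about 18,000 compounds, about 900 of them at 50% or above in at least one test.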

| SMILES | Mtb glucose medium | Mtb cholesterol medium |
|---|---|---|
| `Cc1cccc(-c2nc(N)n(C(=O)c3cccs3)n2)c1` | -3.226 | -12.63 |
| `Cc1noc(C)c1CC(=O)NC1CC1` | -2.4 | -15.83 |
| `COc1ccc(Cl)cc1NC(=O)N[C@@H]1CNCC[C@H]1O` | 35.85 | 10.52 |
| `CN1CCN(C(=O)C2CCCO2)c2ccccc2C1` (centres unmarked) | -5.716 | -2.177 |
| `Cc1ccc(-c2[nH][nH]c(=O)c2CCN)cc1` | 3.83 | 0.2084 |
| `c1nc2c(c(NCCC3CCOC3)n1)CCNCC2` (centres unmarked) | 7.25 | -6.19 |
| `CC(=O)c1c(C)[nH]c(C(=O)OCC(=O)N(C)C)c1C` | 76.27 | 25.26 |
| `CN(C)C(CN)c1ccc(F)cc1` (centres unmarked) | 55.37 | 26.7 |
| `Cc1nnc(SCc2ccc(Cl)s2)n1CC(N)=O` | 53.23 | 37.33 |
| `CCOCCOc1cc(C)ccc1CN` | 50.95 | 21.4 |
| `O=C(NCCSCc1ccco1)c1cccnc1O` | 1.933 | 1.004 |
| `CC1CN(C(=O)c2cc[nH]n2)CCN1CC(C)(C)O` (centres unmarked) | 20.25 | 24.75 |
| `O=C(CC1SCCNC1=O)NCCc1ccccc1` (centres unmarked) | 16.98 | 24.66 |
| `Cc1cnc(C(=O)c2ncc(C)[nH]2)[nH]1` | 46.88 | 37.67 |
| `CCS(=O)(=O)CC(=O)Nc1nc2c(C)ccc(C)c2s1` | 18.99 | 5.84 |
| `NS(=O)(=O)N1CCC(Cc2ccccc2)CC1` | 49.47 | 46.21 |
| `CN(C)[C@H]1CN(C(=O)c2ccncc2)C[C@@H]1C1CC1` | 3.262 | -0.02524 |
| `CC(C)c1ccoc1C(=O)N(C)c1cc(C#N)ccn1` | 63.91 | 50.76 |
| `CCC1c2cccn2CCN1C(=O)c1snnc1C` (centres unmarked) | 22.8 | -7.311 |
| `CC(C)n1cc(CN2CCc3n[nH]c(=O)n3CC2)cn1` | -10.14 | -20.6 |
| `CCC(C)(N)c1nc2c(c(=O)[nH]1)CCCC2` (centres unmarked) | 4.568 | -9.846 |
| `Cc1ccc(C(=O)NCCCNCCCN(C)C)cn1` | -2.328 | -5.241 |
| `COc1ccc(NC(=O)CCc2ccncc2)cn1` | -24.61 | -31.45 |
| `COC(=O)C1CCCN1CCN1CCCC1=O` (centres unmarked) | 3.483 | -4.054 |
| `CCNS(=O)(=O)CCNC(=O)c1cc(C)ccc1O` | 38.14 | 12.59 |
| `CSCC(CCO)NC(=O)c1coc2ccccc12` (centres unmarked) | 16.8 | 6.448 |
| `Cc1cnc(N2CCCN(CCO)CC2)nc1C` | 40.5 | 6.196 |
| `Cc1nonc1CC(=O)N(C)CC1CCCCO1` (centres unmarked) | 17.3 | 12.79 |
| `CC(=O)c1ccc(NC(=O)N2CC[C@H]3CNC[C@H]32)cc1` | 41.68 | 28.86 |
| `CCn1nc(C)c(CCN)c1C` | 7.034 | 6.868 |
| `CC(C)n1cc(C(=O)N2CC(c3ccccn3)C2)cn1` | 40.25 | 19.81 |
| `O=C1NCC2(CCN(CCc3ccccn3)CC2)O1` | 23.68 | 10.79 |
| `O=C(Cc1ccccc1F)Nc1ccon1` | 15.3 | 9.393 |
| `CCN1CCC(NC(=O)c2ccccc2OC)CC1` | 12.34 | 14.2 |
| `Cc1ccnc(N(C)CC2(CO)CCOCC2)n1` | 22.88 | 8.698 |
| `CC(C)(CN)C1(O)CCCC1` | -7.623 | -7.892 |
| `Cc1nnc(NC(=O)NC2CCC(O)CC2)s1` (centres unmarked) | 7.98 | 5.863 |
| `NC(=O)C1CCN(CC(=O)NCc2ccc(Cl)s2)CC1` | 34.71 | 17.27 |
| `CCCN(CCO)C(=O)C(C)NC(=O)c1ccoc1` (centres unmarked) | -3.608 | -1.872 |
| `Cn1nccc1C(=O)NCC(C)(O)c1ccccc1Cl` (centres unmarked) | 33.03 | 23.8 |
| `OC(CN1CCN(c2ccccn2)CC1)C1CC1` (centres unmarked) | -8.374 | -5.761 |
| `CN1CCC(CN(C)C(=O)Cc2ccsc2)C1` (centres unmarked) | 21.59 | 4.62 |
| `CN(C)CC(=O)Nc1ccc2c(c1)C(O)CC2(C)C` (centres unmarked) | -3.328 | -7.114 |
| `CCN(CC(=O)NC(N)=O)Cc1ccc2c(c1)OCO2` | 6.166 | -1.87 |
| `CNC(=O)Cc1noc(COC2CCCCC2)n1` | 21.73 | 11.97 |
| `CCC(C)(C)NC(=O)c1ccn(-c2ccccc2F)n1` | 81.41 | 81.48 |
| `COc1ccc(C(N)c2ccco2)cc1` (centres unmarked) | 19.91 | 20.26 |
| `N#CCOC(=O)c1ccc(-n2cnnn2)cc1` | 0.06781 | -18.25 |
| `NCC1CCCCN1C(=O)Cc1ccc(F)cc1F` (centres unmarked) | -3.451 | -3.379 |
| `NCCc1ccsc1` | 7.42 | 6.211 |
| `COc1cc(C(C)=O)ccc1S(C)(=O)=O` | -9.905 | -21.93 |

The values are deposited in ChEMBL (CHEMBL3988442, “University of Dundee, Small-Polar-MMV Screening Library” (2021)).